# Microarray screen: hit calls

Source: the ROBIN nucleic acid binder screens (doi:10.1002/anie.202211358).

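Each compound is printed as two spots on a slide made to bind it covalently, so it has no test concentration; the read-out is fluorescence of the bound, labelled oligonucleotide. The data file lists only calls. An earlier report of the laboratory on the PreQ1, TPP and SAM-II riboswitches (doi:10.1038/s41467-019-09493-3) used 1 µM RNA for 2 h and required a mean Z-score above 3 (spot signal-to-noise against the whole library), a score well above that on a control array, and duplicate spots agreeing (coefficient of variation under 100); it then also set aside compounds that hit other targets, which this list keeps. The cut-offs behind this list may differ. These are primary screening calls, not affinities; a compound without a hit may have attached poorly or may still bind in solution.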
“active” means called a hit, “inactive” means screened and not called a hit.
This is an unselected part of the compounds tested.
A target missing from an entry has no call listed here.

Targets (5′ to 3′):
T1: TPP riboswitch RNA three-way junction, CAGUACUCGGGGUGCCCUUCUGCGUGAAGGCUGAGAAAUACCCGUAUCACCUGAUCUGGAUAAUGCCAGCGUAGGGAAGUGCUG. About 160 hits among about 24,000 compounds.
T2: SAM-II riboswitch RNA pseudoknot, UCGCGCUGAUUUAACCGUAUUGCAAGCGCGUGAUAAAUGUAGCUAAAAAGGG. About 200 hits among about 21,000 compounds.
T3: PreQ1 riboswitch RNA pseudoknot, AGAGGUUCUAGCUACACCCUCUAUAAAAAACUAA. From B. subtilis. About 170 hits among about 24,000 compounds.

Calls for CCN(CC)c1nc(NC)nc(-n2cnc(SCc3ccccc3)n2)n1 are T1: inactive; T3: inactive.
Calls for CC(C)c1cc(C(=O)N2CCc3nc(N)sc3C2)nc2ncnn12 are T1: inactive; T2: inactive; T3: inactive.
Calls for COc1ccc(C(=O)NC2CC2)cc1NC(=O)NC(C)c1nnc(N)s1 (stereo not given) are T1: inactive; T2: inactive; T3: inactive.
Calls for COCCOC(=O)C1=C(C)OC(N)=C(C#N)C1c1ccc(Br)cc1 (stereo not given) are T1: inactive; T2: inactive; T3: inactive.
Calls for CSCC(=O)N1CCC2(CC1)[C@H](O)C[C@@H]2OCCN are T1: inactive; T2: inactive; T3: inactive.
Calls for COc1ccc(-c2csc(NCc3ccco3)n2)cc1OC are T1: inactive; T2: inactive; T3: inactive.
Calls for CC(C)n1ccnc1Cn1nc(C2CCNCC2)n(-c2ccccc2)c1=O are T1: inactive; T2: inactive; T3: inactive.
Calls for Cc1csc(N2CCC(N3CCC(O)CC3)CC2)n1 are T1: inactive; T2: inactive; T3: inactive.
Calls for COc1ccc2cc(C3CN(C(=O)c4cc(N)[nH]n4)CCO3)ccc2c1 (stereo not given) are T1: active; T2: active; T3: active.
Calls for CN1CCC(Cc2nc(-c3ccccc3-c3nnn[nH]3)n(CCO)n2)CC1 are T1: inactive; T2: inactive; T3: inactive.
Calls for Cc1ccc(/N=N\c2c(O)ccc3[nH]nnc23)cc1 are T1: inactive; T2: inactive; T3: inactive.
Calls for Cc1ccc(CN[C@H]2CS(=O)(=O)C[C@@H]2S(=O)(=O)c2ccc(C)cc2)cc1 are T1: inactive; T3: inactive.
Calls for CCCNCC1C(Oc2ccc(Cl)cc2)C(=O)N1c1ccccc1C (stereo not given) are T1: inactive; T2: inactive; T3: inactive.
Calls for CCNc1nc(N2CCCCC2)nc(-n2nnc(C(=O)OCC)c2C)n1 are T1: inactive; T2: inactive; T3: inactive.
Calls for Nc1nc2c(s1)C(c1cc(F)ccc1F)CC(=O)N2 (stereo not given) are T1: inactive; T2: inactive; T3: inactive.
Calls for O=C(O)c1c(CNCc2ccccn2)c2ccccc2n1Cc1ccccc1F are T1: inactive; T3: inactive.
Calls for Cc1ccccc1Nc1c(-c2ccc(N3CCOCC3)cc2)nc2ncccn12 are T1: inactive; T2: inactive; T3: active.
Calls for CC1(C)CC(=O)C2=C(C1)OC(N)=C(C#N)C2c1ccc(Cl)cc1Cl (stereo not given) are T1: inactive; T2: inactive; T3: inactive.
Calls for COc1ccc(-c2c(C#N)c(N)nc3sc(C(=O)OCc4ccccc4)c(N)c23)cc1OC are T1: inactive; T2: inactive; T3: inactive.
Calls for COc1ccc(Cl)cc1Nc1cc(C)nc2nc(Cc3ccccc3)nn12 are T1: inactive; T3: inactive.
Calls for CCc1cc(CNC2CCN(c3cc(C)nc(-c4ccccc4)n3)CC2)on1 are T1: inactive; T2: inactive; T3: inactive.
Calls for NC1=C(c2nc3ccccc3s2)C(=O)CN1CCN1CCOCC1 are T1: inactive; T2: inactive; T3: inactive.
Calls for Cc1c(NCc2ccccn2)cccc1C(=O)NC(C)CCn1cccn1 (stereo not given) are T1: inactive; T2: inactive; T3: inactive.
Calls for CC(C)CN1CCn2nc(CNC(=O)c3ccc4c(c3)NC(=O)CN4)cc2C1 are T1: inactive; T2: inactive; T3: inactive.
Calls for CCCc1cc(C(=O)N2CC[C@@H](NC(=O)c3cnccn3)[C@H](O)C2)no1 are T1: inactive; T2: inactive; T3: inactive.
Calls for COc1ccc(NC2c3ncccc3C(=O)N2Cc2ccccc2)cc1OC (stereo not given) are T1: inactive; T2: inactive; T3: inactive.
Calls for N[C@H]1CC[C@@H](n2cc(C(=O)NCc3ccccc3-n3cccn3)nn2)CC1 are T1: inactive; T2: inactive; T3: inactive.
Calls for c1ccc2nc(OCCN3CC3)ccc2c1 are T1: inactive; T2: inactive; T3: inactive.
Calls for CN(C)C[C@H]1C[C@H](CO)CN(C(=O)c2cnc3cc(Cl)ccc3c2O)C1 are T1: inactive; T2: inactive; T3: inactive.
Calls for CCCC(C)N1CC2(CCN(C(=O)c3ccc(CO)cc3)CC2)OC1=O (stereo not given) are T1: inactive; T2: inactive; T3: inactive.
Calls for O=C1c2ccccc2C(=O)c2c1cccc2S(=O)(=O)NCCO are T1: inactive; T2: inactive; T3: inactive.
Calls for COc1ccc2c(n1)Sc1nc3ccccc3nc1N2 are T1: inactive; T2: inactive; T3: inactive.
Calls for Cc1ccc(-c2nc(CC3CCc4ccccc43)n(CCO)n2)o1 (stereo not given) are T1: inactive; T2: inactive; T3: inactive.
Calls for Nc1nc(CCC(=O)N(CCO)Cc2ccccc2)cs1 are T1: inactive; T2: inactive; T3: inactive.
Calls for CCCC1(CO)CCCN(CCn2ccnc2)C1 (stereo not given) are T1: inactive; T2: inactive; T3: inactive.
Calls for Cc1nn2c(NC(C)C)c3c(nc2c1-c1ccccc1)CCCC3 are T1: inactive; T3: inactive.
Calls for CCN(CC)c1ccc(C2C(C#N)=C(N)Oc3[nH]nc(C)c32)cc1 (stereo not given) are T1: inactive; T2: inactive; T3: inactive.
Calls for NC(=O)C1=C(NC2CCCCC2)c2ccccc2S1(=O)=O are T1: inactive; T3: inactive.
Calls for CC(C)Cc1ccc(-c2n[nH]c3c2C(c2ccco2)C(C#N)=C(N)O3)cc1 (stereo not given) are T1: inactive; T2: inactive; T3: inactive.
Calls for Cc1ccc(CNc2ccc3c(c2)ncn3C(C)C)cc1 are T1: inactive; T2: inactive; T3: inactive.
Calls for CCC[C@H](NC(=O)C(C#N)=Cc1cccc(Br)n1)c1ccccc1 are T1: inactive; T2: inactive; T3: inactive.

The last 3 entries again:

| SMILES | T1 | T2 | T3 |
|---|---|---|---|
| `CC(C)Cc1ccc(-c2n[nH]c3c2C(c2ccco2)C(C#N)=C(N)O3)cc1` (stereo not given) | inactive | inactive | inactive |
| `Cc1ccc(CNc2ccc3c(c2)ncn3C(C)C)cc1` | inactive | inactive | inactive |
| `CCC[C@H](NC(=O)C(C#N)=Cc1cccc(Br)n1)c1ccccc1` | inactive | inactive | inactive |